Test [1] deals with S. aureus ATCC 43300 (MRSA). The test can be described thus: In vitro MIC bioassay (broth microdilution, 384 well). It counts as cell-based. The settings on record: Staphylococcus aureus, read-out: MIC70 S. aureus ATCC 43300. Here is the method: (§1) Minimal inhibitory concentrations against a selection of Gram-positive indicator organisms (MICs) were determined according to Clinical and Laboratory Standards Institute protocols by microdilution tests using in a 384 well format. The indicator strains were incubated in TSB medium over night until OD600-0.4, then diluted to OD600=0.1 in TSB medium and further 45× in assay medium (Mueller-Hinton broth, Difco). Inoculated medium was distributed into assay plates. Inoculated wells were added a 2× dilution series of either isolated compound or vancomycin (reference) diluted in DMSO, giving a final DMSO concentration in each well of 2.7%, and final concentrations of active compound between 0 and 540 μg/ml (23 different concentrations). Four parallels were assayed for each compound and concentration. 0.5 mg of the compound produced by strain M1152ΔmatAB (P08-G05_C16) was purified on preparative HPLC, and the pure compound was tested in bioassay against a panel of strains. The indicator organisms were M. luteus ATCC 9341, Staphylococcus aureus ATCC 29213, Staphylococcus aureus ATCC 43300 (MRSA), Enterococcus faecium CCUG 37832, Enterococcus faecium CTC 492.
In general terms: Dilution methods test growth across graded concentrations, often in twofold steps.

A further test concerns S. aureus ATCC 29213. The description is as above. It counts as cell-based. The settings on record: Staphylococcus aureus, ATCC29213, read-out: MIC70 S. aureus ATCC 29213. Here is the method: as §1

Converted amounts (≈) assume the structure as drawn.

Turning to `CN[C@H](CC(C)C)C(=O)N[C@H]1C(=O)N[C@@H](CC(N)=O)C(=O)N[C@H]2C(=O)N[C@H]3C(=O)N[C@H](C(=O)N[C@H](C(=O)O)c4cc(O)cc(O)c4-c4cc3ccc4O)[C@H](O)c3ccc(c(Cl)c3)Oc3cc2cc(c3O[C@@H]2O[C@H](CO)[C@@H](O)[C@H](O)[C@H]2O[C@H]2C[C@](C)(N)[C@H](O)[C@H](C)O2)Oc2ccc(cc2Cl)[C@H]1O` [Vancomycin, vancomycin], the MIC (in test [1]; in the test with S. aureus ATCC 29213) was 1.06 µg/mL (≈ 0.731 µM) throughout.
